Test results published in PMC6410080 (Viruses, 2019).
Where a name gives a salt, the structure may show the parent alone.

Tests used:
in vitro [1] = details: human
in vitro [2] = details: human, % viability (SFV screen)

With CCCCc1oc2ccccc2c1C(=O)c1cc(I)c(OCCN(CC)CC)c(I)c1 [Amiodarone, Amiodarone hydrochloride] the viability at 10 µM (in vitro [1]) was 76.1% and the viability at 10 µM (in vitro [2]) was 83.1%.
